PubChem BioAssay AID686943 – Drosophila RNAi Screening Center | 2013
The screen tested about 23,000 reagents; shown is a random part of those with a known target gene and a result. 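Extra replicates exist only for a retested subset of genes; insulin dose and duration not given; both raised and lowered dpERK matter.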 Names joined by + are all predicted targets of the reagent. The record does not give: the amount of reagent, the time to read-out.

Aim: 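Search across the genome for regulators of signalling from receptor tyrosine kinase to ERK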 (primary screen)
System: Drosophila S2R+ haemocyte-like cells expressing YFP-tagged ERK (Rolled)
Reagents: long dsRNA against Drosophila genes
Treatment: insulin stimulation versus unstimulated cells; dose and duration not given
Read-out: 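Per-plate z-scores of phospho-ERK immunostaining normalised to YFP-tagged ERK, measured with and without insulin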
Direction: replicate 1, z-score of dpERK with insulin and replicate 2, z-score of dpERK with insulin: higher = more active ERK per ERK-YFP after insulin; replicate 1, z-score of dpERK under basal conditions: higher = more basal active ERK per ERK-YFP; replicate 1, z-score of ERK-YFP with insulin: higher = more YFP-tagged ERK signal

target	DRSC id	replicate 1, z-score of dpERK with insulin	replicate 2, z-score of dpERK with insulin	replicate 1, z-score of dpERK under basal conditions	replicate 1, z-score of ERK-YFP with insulin
tHMG2	DRSC16182	1.02	0.4	1.26	-0.56
hry	DRSC11353	-3.35	-3.15	-1.04	-0.03
Gbs-70E	DRSC11055	-0.56	0.4	0.4	0.13
CG8492	DRSC10984	1.58	0.25	-0.33	-1.98
CG8492	DRSC21804	0.57	-0.29	0.14	-0.63
CG12289	DRSC09874	-0.08	0.31	-0.23	0.2
CG4607	DRSC18375	-0.38	-0.25	0.31	1.47
CG34040	DRSC03902	-0.38	-0.11	1.5	0.1
CG6287	DRSC02947	-0.07	0.43	0.7	0.27
RpS15	DRSC07151	0.48	-2.07	-0.56	-4.97
snama	DRSC04049	0.54	1.39	0.83	1.03
Hacl	DRSC06061	0.09	-0.7	0.37	0.14
Akt	DRSC14108	1.92	3.54	-0.03	-0.19
dpr16	DRSC12217	-0.25	0.02	-0.87	1.04
dpr16	DRSC12249	-0.87	-0.03	0.2	0.14
CG13326	DRSC06363	0.47	-0.07	-0.39	0.12
pan	DRSC17176	1.01	-0.08	-0.36	-0.32
pan	DRSC22582	0.49	0.44	0.24	0.27
AOX3	DRSC15955	0.3	0.49	-0.56	1.79
CG31997	DRSC17105	-0.1	-0.26	-0.2	-0.31
CG17027	DRSC10238	-0.43	-0.38	-0.44	0.72
CG3588	DRSC18473	0.54	0.27	-0.77	0.44
fz4	DRSC18780	0.25	0.14	0.23	-0.08
Yif1	DRSC15817	0.19	0.18	0.98	0.23
Strn-Mlck	DRSC05032	0.4	-0.64	-1.29	0.09
Strn-Mlck	DRSC05598	-0.09	-0.26	0.38	-0.07
Strn-Mlck	DRSC06571	-0.67	-1	0.17	0.47
Strn-Mlck	DRSC07471	-0.68	1.38	-0.88	0.12
ppan	DRSC17030	0.36	0.5	0.13	-0.42
JYalpha (retired record) + JYalpha	DRSC21700	0.78	0	-1.5	0.18
Prosbeta4	DRSC02603	-1.42	-3.06	-1.85	1.24
Ilp6	DRSC17906	0.64	-0.62	0.77	0.15

Sorted by “replicate 2, z-score of dpERK with insulin” (high to low): 5 of the entries above.
target	DRSC id	replicate 1, z-score of dpERK with insulin	replicate 2, z-score of dpERK with insulin	replicate 1, z-score of dpERK under basal conditions	replicate 1, z-score of ERK-YFP with insulin
Akt	DRSC14108	1.92	3.54	-0.03	-0.19
snama	DRSC04049	0.54	1.39	0.83	1.03
dpr16	DRSC12217	-0.25	0.02	-0.87	1.04
dpr16	DRSC12249	-0.87	-0.03	0.2	0.14
Hacl	DRSC06061	0.09	-0.7	0.37	0.14

Additional reagents:
target	DRSC id	replicate 1, z-score of dpERK with insulin	replicate 2, z-score of dpERK with insulin	replicate 1, z-score of dpERK under basal conditions	replicate 1, z-score of ERK-YFP with insulin
CG10962	DRSC18421	-0.26	-1.04	-0.31	0.46
CG14985	DRSC08078	0.27	-0.2	0.7	0.57
CG14985	DRSC08443	-0.52	0.01	-0.03	-0.04
PH4alphaNE1	DRSC16546	-0.76	-0.53	-0.48	0.43
Nlg4	DRSC15108	0.81	0.71	1.2	-0.77
Nlg4	DRSC15109	0.27	-0.32	1.06	-0.07
Nlg4	DRSC15700	0.38	0.86	-0.73	-0.09
Nlg4	DRSC15701	-2.64	-3.45	-2.44	1.47
Nlg4	DRSC22243	-1.58	-2.5	1.74	0.6
CG31275	DRSC16919	-0.44	-1.24	0.85	0.17
Mgat2	DRSC16347	0.67	0.09	-0.02	-0.35
lz	DRSC18790	-2.87	0.66	-0.3	-0.07
lz	DRSC22302	-1.18	-1.74	0.44	0.86
TBPH	DRSC04660	-0.51	-0.33	-0.46	-0.91
Slc25A46a	DRSC20125	0.34	0.94	0.17	0.08
Ten-a	DRSC18924	0.54	0.11	-0.76	0.29
Ten-a	DRSC19496	-3.97	-2.52	-2.45	-3.16
Ten-a	DRSC19700	0.11	-0.24	-0.48	0.56
Ten-a	DRSC19793	1.28	0.83	0.59	0.42
Ten-a	DRSC19864	0.31	-0.11	-0.27	0.09
Ten-a	DRSC19865	0.4	0.18	0.87	0.29
Ten-a	DRSC20290	0.43	0.85	-0.67	0.66
Ten-a	DRSC21461	0.22	0.35	-0.95	1.6
RpL27A	DRSC00781	-2.51	-1.81	-1.05	-2.48
CG11309	DRSC11650	0.02	0.06	1.76	-0.01
